Reference: article PMC2396500
Numbering of substitutions follows the chain as printed. In names and notes the source's numbering stands. Results are given in words; binding and its absence hold for the method and conditions named. For some assays here: In cells and extracts the contact can be indirect. Some binding calls cover weakened binding; strength is not graded here. For some assays here: Where a sequence is shown, tags or fusion partners need not be part of it. One block for each binder: values may come before it.

What was measured:
[1] = target: T1, Arabidopsis CUL4 (Arabidopsis thaliana (endogenous in plants)) (UniProt Q8LGH4); assay: co-IP; extracts of WT, pOEX4GFP-DDB2 and ddb1a-2 pOEX2DDB1A-GFP Arabidopsis plants; immunoprecipitation with either anti-CUL4 or anti-GFP antibodies; WT plants as controls
T1 sequence: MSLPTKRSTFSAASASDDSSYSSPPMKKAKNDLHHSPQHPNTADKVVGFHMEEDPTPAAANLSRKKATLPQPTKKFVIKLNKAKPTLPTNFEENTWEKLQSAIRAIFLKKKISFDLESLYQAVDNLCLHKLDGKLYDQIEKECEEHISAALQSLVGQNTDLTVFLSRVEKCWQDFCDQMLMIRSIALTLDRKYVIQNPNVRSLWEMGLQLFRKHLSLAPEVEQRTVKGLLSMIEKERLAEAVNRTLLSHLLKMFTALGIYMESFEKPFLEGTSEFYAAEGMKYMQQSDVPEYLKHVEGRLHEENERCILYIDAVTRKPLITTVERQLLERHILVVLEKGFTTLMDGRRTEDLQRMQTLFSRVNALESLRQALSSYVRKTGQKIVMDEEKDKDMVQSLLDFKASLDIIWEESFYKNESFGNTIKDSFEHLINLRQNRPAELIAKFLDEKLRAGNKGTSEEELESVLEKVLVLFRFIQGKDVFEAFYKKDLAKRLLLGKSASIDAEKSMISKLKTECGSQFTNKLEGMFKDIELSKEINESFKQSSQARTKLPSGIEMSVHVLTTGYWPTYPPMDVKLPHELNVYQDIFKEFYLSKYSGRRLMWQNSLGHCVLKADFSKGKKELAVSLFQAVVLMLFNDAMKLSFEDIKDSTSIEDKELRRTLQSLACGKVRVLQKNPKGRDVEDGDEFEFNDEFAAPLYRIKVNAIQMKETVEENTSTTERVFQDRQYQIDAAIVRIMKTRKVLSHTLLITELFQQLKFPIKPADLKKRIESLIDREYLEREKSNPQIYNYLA

[2] = target: T2, Arabidopsis DDB1A (yeast two-hybrid fusion) (Arabidopsis thaliana) (UniProt Q9M0V3); assay: two-hybrid; yeast two-hybrid; no auto-activation by the single plasmids on LTA medium
T2 sequence: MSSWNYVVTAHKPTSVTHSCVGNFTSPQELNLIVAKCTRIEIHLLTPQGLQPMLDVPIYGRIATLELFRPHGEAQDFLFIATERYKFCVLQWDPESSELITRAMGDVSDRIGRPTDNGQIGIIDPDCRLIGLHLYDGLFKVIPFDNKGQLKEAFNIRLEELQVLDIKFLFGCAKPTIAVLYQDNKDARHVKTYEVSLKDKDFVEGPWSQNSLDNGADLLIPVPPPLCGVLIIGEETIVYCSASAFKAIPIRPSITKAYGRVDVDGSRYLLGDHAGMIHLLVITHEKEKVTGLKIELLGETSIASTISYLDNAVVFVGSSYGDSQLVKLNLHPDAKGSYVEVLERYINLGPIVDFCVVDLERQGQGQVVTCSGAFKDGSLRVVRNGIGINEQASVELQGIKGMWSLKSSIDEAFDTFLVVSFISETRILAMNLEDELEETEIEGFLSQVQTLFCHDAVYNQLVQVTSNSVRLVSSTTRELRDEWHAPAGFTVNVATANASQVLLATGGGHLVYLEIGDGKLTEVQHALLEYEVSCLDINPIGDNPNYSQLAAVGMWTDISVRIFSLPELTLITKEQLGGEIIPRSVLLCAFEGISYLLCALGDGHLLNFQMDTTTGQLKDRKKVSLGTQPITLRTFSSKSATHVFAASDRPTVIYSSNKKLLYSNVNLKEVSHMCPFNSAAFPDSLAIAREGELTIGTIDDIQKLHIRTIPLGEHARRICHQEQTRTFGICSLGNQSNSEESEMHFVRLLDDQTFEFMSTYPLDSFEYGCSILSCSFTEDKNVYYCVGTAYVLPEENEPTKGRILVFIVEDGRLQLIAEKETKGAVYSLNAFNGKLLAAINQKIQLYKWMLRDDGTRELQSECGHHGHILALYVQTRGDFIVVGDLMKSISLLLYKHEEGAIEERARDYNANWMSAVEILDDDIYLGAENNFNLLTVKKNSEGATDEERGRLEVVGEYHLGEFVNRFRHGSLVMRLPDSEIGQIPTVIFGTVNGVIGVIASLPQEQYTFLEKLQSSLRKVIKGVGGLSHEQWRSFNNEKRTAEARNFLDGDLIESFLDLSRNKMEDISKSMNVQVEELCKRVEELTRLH

[3] = target: T1, Arabidopsis CUL4 (Arabidopsis thaliana (endogenous in plants)); assay: co-IP; extracts of WT Arabidopsis plants; immunoprecipitation with anti-CUL4 antibody; CUL4 and DDB2 detected before and 15 min upon UV-C exposure

binding [1]: binds
B1: GFP-DDB2 fusion protein (protein, UniProt Q6NQ88 1-557)
chain: MSSTRSRRKRDPEIVIARDTDSELSSSEEEEEEEDNYPFSESEEEDEAVKNGGKIELEKNKAKGKAPITVKLIKKVCKVCKQPGHEAGFKGATYIDCPMKPCFLCKMPGHTTMSCPHRVVTDHGILPTSHRNTKNPIDFVFKRQLQPRIPPIKPKYVIPDQVHCAVIRYHSRRVTCLEFHPTKNNILLSGDKKGQIGVWDFGKVYEKNVYGNIHSVQVNNMRFSPTNDDMVYSASSDGTIGYTDLETGTSSTLLNLNPDGWQGANSWKMLYGMDINSEKGVVLAADNFGFLHMIDHRTNNSTGEPILIHKQGSKVCGLDCNPVQPELLLSCGNDHFARIWDMRKLQPKASLHDLAHKRVVNSAYFSPSSGTKILTTCQDNRIRIWDSIFGNLDLPSREIVHSNDFNRHLTPFKAEWDPKDTSESLIVIGRYISENYNGTALHPIDFIDASNGQLVAEVMDPNITTITPVNKLHPRDDVLASGSSRSLFIWRPQDNTEMVEEKKDKKIIICYGDSKKKGKKQKRGSDDEDDEDDIFSSKGKNIKVNKYQAKTTKKTKT

binding [2]: binds
B2: mutated Arabidopsis DDB2 protein DDB2 (R343H) (yeast two-hybrid fusion) (protein, UniProt Q6NQ88 1-557)
chain: B1 chain with R343H

binding [1]: binds
B5: DDB1A-GFP fusion protein (protein, UniProt Q9M0V3 1-1088)
chain: T2 sequence

The next lines start with the binder.

B3: Arabidopsis DDB2 (endogenous) (protein, UniProt Q6NQ88 1-557)
chain: B1 chain
binding [3]: binds

B4: Arabidopsis DDB2 (yeast two-hybrid fusion) (protein, UniProt Q6NQ88 1-557)
chain: B1 chain
binding [2]: binds
